Results as given in US20080027003A1, “Peptides Useful for Treating Gnrh Associated Diseases” (CurePeptide Ltd., priority 2004, published 2008).
Read-outs that look alike come from different tables or passages of the source. At least one peptide structure holds a part that was inferred or is arguable (an end, a ring closure or a residue). Non-standard residues stand in square brackets, D forms with d. Residues, ends and D or L forms follow the SMILES beside them. *: point of attachment. Palmitoyl = CCCCCCCCCCCCCCCC(=O)*

What was measured:
[1] = test system: Colo-205 adenocarcioma cell line; assay: Growth inhibitory effect by Hemacolor assay on Colo-205 (Example 7); assay type: cell-based, human
Excerpt: Peptides were synthesized as described in Example 6 above.
Table 10 below summarizes the concentration of the various peptides required to obtain 50% viability, or to destroy 50% of the tumor cells, as derived from the hemacolor test (FIGS. 3 and 4a-c). Of note, the higher the concentration of peptide required, the poorer the potency of the analog.

Colo-205 [2] = assay type: cell-based, human; settings: COLO-205, MDA-MB-231 and HCT-116 (Table 9)
Procedure: Hemacolor assay—A comparative study was effected between peptides GnRH—X and NLS-GnRH-E on three adenocarcinoma cell lines: MDA-MB-231 (breast) HCT-116 and Colo-205 (colon), described in Example 5 above. Briefly, cells were plated in 96 well plates and allowed to adhere to the plates. Thereafter, various concentrations of GnRH and NLS-GnRH peptides were incubated with the adhered cells for 24 h. To quantify the extent of damage to the cells by the peptides, the Hemacolor assay was effected as described in Example 5. Viable cells which remained adhered to the 96 plastic plates were fixed and stained. Dye was extracted from the plate by addition of 0.5% SDS in PBS (100 μl) with vigorous mixing. Plates were quantified at 650 nm by spectrophotometer (ELISA reader). Cell viability of ≧95% by Trypan blue exclusion from 400 cells was a prerequisite for each experiment. Note, the color intensity is proportional to the extent of the remaining viability. Data was calculated as EC50, which is defined as the concentration (in μM) of analog that provokes a response half way between the baseline (Bottom=control) and maximum response (Top).

Colo-205 [3] = assay: Selective anti adenocarcinoma activity, Hemacolor test (Example 8); assay type: cell-based, human; settings: 1×10^−5 M
[4] = test system: Human foreskin fibroblasts (ATCC CRL 2091); assay: as above; assay type: cell-based; settings: Normal human fibroblasts; 1×10^−5 M and 2.5×10^−5M
[5] = read-out: Concentration [M] × 10^−6 (derived from table 10)
[6] = read-out: Concentration required to obtain 50% viability

Row | SMILES | Activity with respect to NLS-E (%) [1] [%] | EC50 [1, 5] [M] | EC50 [1, 6] [M] | Activity with respect to NLS peptide (%) ([1]; relative to the corresponding NLS-conjugated peptide) | efficacy of NLS conjugated versus NLS free peptide (Colo-205 [2]) | cell destruction (Colo-205 [3]) | cell destruction [4]
1 | CCCCCCCCCCCCCCCC(=O)N1CCC[C@H]1C(=O)NCC(=O)N[C@H](Cc1ccccc1)C(=O)N1CCC[C@H]1C(=O)N[C@@H](CO)C(=O)N[C@@H](Cc1ccc(O)cc1)C(=O)N[C@H](CCCCN)C(=O)N[C@@H](CC(C)C)C(=O)N[C@@H](CCCNC(=N)N)C(=O)N1CCC[C@H]1C(=O)NCC(N)=O [SEQ ID NO: 2, Palm-Pro-Gly-D-Phe-Pro-Ser-Tyr-D-Lys-Leu-Arg-Pro-Gly-NH2] (Palmitoyl-PG[dF]PSY[dK]LRPG-NH2) | 16 | 2e-05 | 2e-05 | 50 | – | – | –
2 | CCCCCCCCCCCCCCCC(=O)N[C@H](CCCCNC(=O)[C@@H](NC(=O)[C@H](CCCCN)NC(=O)[C@H](CCCNC(=N)N)NC(=O)[C@H](CCCCN)NC(=O)[C@H](CCCCN)NC(=O)[C@H](CCCCN)NC(=O)[C@@H]1CCCN1)C(C)C)C(=O)N1CCC[C@H]1C(=O)NCC(=O)N[C@H](Cc1ccccc1)C(=O)N1CCC[C@H]1C(=O)N[C@@H](CO)C(=O)N[C@@H](Cc1ccc(O)cc1)C(=O)N[C@H](CCCCN)C(=O)N[C@@H](CC(C)C)C(=O)N[C@@H](CCCNC(=N)N)C(=O)N1CCC[C@H]1C(=O)NCC(N)=O [SEQ ID NO: 33, Palm-D-Lys(H-Pro-Lys-Lys-Lys-Arg-Lys-Val)-Pro-Gly-D-Phe-Pro-Ser-Tyr-D-Lys-Leu-Arg-Pro-Gly-NH2] | 100 | 6e-06 | 6e-06 | – | better efficacy than NLS free peptide (X) | cell destruction was observed | displayed resistance
